“Also recorded” adds a separate entry of the source. At least one compound was matched to its structure with a doubt left.
Key:
ERK = conditions: NBL-S and SH-SY5Y cells, starved 4 hours; Ibrutinib 2.5 μM, Crizotinib 0.25 μM, TAE684 0.1 μM
SH-SY5Y cells = assay: MTT proliferation assay; type: cell-based, human; conditions: 48 hr treatment or transfection, normalized to DMSO
Method: (§1) FIGS. 5A-5G: BTK signaling regulates cell proliferation. […] MTT were performed to measure the cell viability, the absorbance of treated cell groups was normalized to that of DMSO treated cells. (FIGS. 5C, 5D) MTT assay of NBL-S or SH-SY5Y cells transfected with BTK (FIG. 5C) or BTK siRNA (FIG. 5D) at 48 hr after transfection. […] (FIG. 5E) NBL-S cells and SH-SY5Y cells were treated with the inhibitors either separately or the combinations as indicated, and the treated cells were collected at different time points for MTT assay. The absorbance of treated cell groups was normalized to that of control cells treated with DMSO.
(§2) Neuroblastoma cells were seeded in 96-well plates at a concentration of 5×10^3 per well. After siRNA transfection or inhibitor treatment for 48 hours, 10 ul MTT ([…]) is added into every well followed by incubation for 4 hours. The absorbance was measured at A570 nm.

NBL-S cells = assay: MTT proliferation assay; type: cell-based, human; conditions: 48 hr treatment or transfection, normalized to DMSO
Method: as §1, §2

SMILES: C=CC(=O)N1CCC[C@@H](n2nc(-c3ccc(Oc4ccccc4)cc3)c3c(N)ncnc32)C1 [Ibrutinib, 1-((R)-3-(4-amino-3-(4-phenoxyphenyl)-1H-pyrazolo[3,4-d]pyrimidin-1-yl)pi-peridin-1-yl)prop-2-en-1-one]
- ERK activation (ERK phosphorylation) (ERK): inhibited ERK activation
- cell proliferation (MTT) (SH-SY5Y cells): inhibited cell proliferation; also recorded: attenuated proliferation
- cell proliferation (MTT) (NBL-S cells): inhibited cell proliferation; also recorded: attenuated proliferation

From patent publication US20190015416A1, “BTK INHIBITORS FOR TREATING NEUROBLASTOMA” (The Chinese University of Hong Kong, priority 2017, published 2019)
